Literature values in patent US7179616B1, “Method for detecting phosphatidylserine on the surface of cells” (University of Notre Dame du Lac, priority 2002, dated 2007).

System: membranes that are rich in PS
Conditions: cited from earlier work

Substance: annexin V: 35 Kd PS-binding protein
- extracellular Ca^2+ needed for complete membrane binding: up to 2.5 mM
